Results deposited as PubChem BioAssay AID1159578 (Peter MacCallum Cancer Centre, 2015)

Test: 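Knock-downs that alter how fast lymphatic endothelial cells migrate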 (primary screen)
Cell system: human lymphatic endothelial cells
Reagent: siRNA pool against human genes, 40 nM
Timing: 48 h after transfection
Read-out: 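Cells stained with dye and imaged after a scratch; covered wound area and nuclei counted, duplicates averaged, migration set against mock wells and turned into a robust z-score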
Direction: migration robust z-score: higher = faster migration into the scratch; nuclei per well: higher = more cells in the well
Rule for the call: 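Migration changed when robust z exceeds 2 or falls below -2 and mean nuclei number is at least 3300; otherwise not called changed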
Meaning of the calls: active = migration changed; inactive = no migration change, or too few cells
Shown is a random part of about 18,000 reagents tested. In the full data, about 1,030 (5.7%) were called active. 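Inactive calls also include pools with fewer than 3300 nuclei, whose migration was not assessed.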 Raw values are not corrected between plates. Entries without a mark were called inactive. Not all columns of the deposit are shown.

After knock-down of CCT6A the results were migration robust z-score -0.13; migration class with cell-count check migration z between -2 and 2; enough cells; nuclei per well, duplicate mean 5524. For INA, the entry reads migration robust z-score 1.04; migration class with cell-count check migration z between -2 and 2; enough cells; nuclei per well, duplicate mean 5970. For CCDC91, the values are migration robust z-score 0.27; migration class with cell-count check migration z between -2 and 2; enough cells; nuclei per well, duplicate mean 6690. Depletion of FZR1 resulted in: migration robust z-score 1.28; migration class with cell-count check migration z between -2 and 2; enough cells; nuclei per well, duplicate mean 5496. FFAR1 gave migration robust z-score -0.1; migration class with cell-count check migration z between -2 and 2; enough cells; nuclei per well, duplicate mean 6535. After knock-down of ABHD16A, the record shows migration robust z-score -1.27; migration class with cell-count check migration z between -2 and 2; enough cells; nuclei per well, duplicate mean 5710.

With knock-down of CLIC3, the record shows migration robust z-score -0.36; migration class with cell-count check migration z between -2 and 2; enough cells; nuclei per well, duplicate mean 4467. With knock-down of GAS2L3 the results were migration robust z-score 2.12 (active); migration class with cell-count check migration z above 2; enough cells; nuclei per well, duplicate mean 6456. CDC20B scored migration robust z-score 0.59; migration class with cell-count check migration z between -2 and 2; enough cells; nuclei per well, duplicate mean 4733. Depletion of UBQLN4 resulted in: migration robust z-score -0.27; migration class with cell-count check migration z between -2 and 2; enough cells; nuclei per well, duplicate mean 4169. IL31 scored migration robust z-score -0.36; migration class with cell-count check migration z between -2 and 2; enough cells; nuclei per well, duplicate mean 5568. After knock-down of UQCC1, the screen gave migration robust z-score -0.43; migration class with cell-count check migration z between -2 and 2; enough cells; nuclei per well, duplicate mean 5688.

IRGQ showed migration robust z-score 0.52; migration class with cell-count check migration z between -2 and 2; enough cells; nuclei per well, duplicate mean 7017. With knock-down of PLA2G6, the screen gave migration robust z-score 0.9; migration class with cell-count check migration z between -2 and 2; enough cells; nuclei per well, duplicate mean 5100. After knock-down of SGCZ the results were migration robust z-score 0.16; migration class with cell-count check migration z between -2 and 2; enough cells; nuclei per well, duplicate mean 6316. Against PRKCQ, the entry reads migration robust z-score -1.84; migration class with cell-count check migration z between -2 and 2; enough cells; nuclei per well, duplicate mean 4430. Depletion of IRX2-DT gave: migration robust z-score -0.74; migration class with cell-count check migration z between -2 and 2; enough cells; nuclei per well, duplicate mean 4435. Knock-down of FH gave: migration robust z-score 0.06; migration class with cell-count check migration z between -2 and 2; enough cells; nuclei per well, duplicate mean 7622.

For NCAPG2 the deposit lists migration robust z-score 0.18; migration class with cell-count check migration z between -2 and 2; enough cells; nuclei per well, duplicate mean 6057. For MYL7, the entry reads migration robust z-score -2.51 (active); migration class with cell-count check migration z below -2; enough cells; nuclei per well, duplicate mean 4146. REP15 showed migration robust z-score 0.34; migration class with cell-count check migration z between -2 and 2; enough cells; nuclei per well, duplicate mean 6038. RPRD1B gave migration robust z-score -0.3; migration class with cell-count check migration z between -2 and 2; enough cells; nuclei per well, duplicate mean 4320. Depletion of RBM19 gave: migration robust z-score -0.36; migration class with cell-count check migration z between -2 and 2; enough cells; nuclei per well, duplicate mean 6793. Against PCMTD2, the entry reads migration robust z-score 1.77; migration class with cell-count check migration z between -2 and 2; enough cells; nuclei per well, duplicate mean 6066.

For GFOD2, the values are migration robust z-score -0.94; migration class with cell-count check migration z between -2 and 2; enough cells; nuclei per well, duplicate mean 4954. Depletion of HPSE2 gave: migration robust z-score 0.91; migration class with cell-count check migration z between -2 and 2; enough cells; nuclei per well, duplicate mean 6216. Silencing of C4orf51 resulted in: migration robust z-score 1.14; migration class with cell-count check migration z between -2 and 2; enough cells; nuclei per well, duplicate mean 5354.

Laid out differently: 2 of the entries above.
| gene | migration robust z-score | migration class with cell-count check | nuclei per well, duplicate mean |
| --- | --- | --- | --- |
| FH | 0.06 | migration z between -2 and 2; enough cells | 7622 |
| NCAPG2 | 0.18 | migration z between -2 and 2; enough cells | 6057 |
